In the supplement of paper PMC12823440, “Inhibitors supercharge kinase turnover through native proteolytic circuits” (Nature, 2025):
The list shows a part of the results. The calls rarely recur for the same compound in another form.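 Kinases, fused to nanoluciferase, were expressed in K562 cells; luminescence was measured every 4 h from 2 to 18 h as percent of control (DMSO = 100%, positive control = 0%). A time point is decreased if signal falls significantly (2 sigma). Hits were called by the authors by a rule that is not shown; the count of time points alone does not decide it.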

Amino acid sequences for entries named in this document (tags omitted). A change or cut given only in a name is not applied to a line headed by its entry.
UniProt Q16288, whole entry, looked up: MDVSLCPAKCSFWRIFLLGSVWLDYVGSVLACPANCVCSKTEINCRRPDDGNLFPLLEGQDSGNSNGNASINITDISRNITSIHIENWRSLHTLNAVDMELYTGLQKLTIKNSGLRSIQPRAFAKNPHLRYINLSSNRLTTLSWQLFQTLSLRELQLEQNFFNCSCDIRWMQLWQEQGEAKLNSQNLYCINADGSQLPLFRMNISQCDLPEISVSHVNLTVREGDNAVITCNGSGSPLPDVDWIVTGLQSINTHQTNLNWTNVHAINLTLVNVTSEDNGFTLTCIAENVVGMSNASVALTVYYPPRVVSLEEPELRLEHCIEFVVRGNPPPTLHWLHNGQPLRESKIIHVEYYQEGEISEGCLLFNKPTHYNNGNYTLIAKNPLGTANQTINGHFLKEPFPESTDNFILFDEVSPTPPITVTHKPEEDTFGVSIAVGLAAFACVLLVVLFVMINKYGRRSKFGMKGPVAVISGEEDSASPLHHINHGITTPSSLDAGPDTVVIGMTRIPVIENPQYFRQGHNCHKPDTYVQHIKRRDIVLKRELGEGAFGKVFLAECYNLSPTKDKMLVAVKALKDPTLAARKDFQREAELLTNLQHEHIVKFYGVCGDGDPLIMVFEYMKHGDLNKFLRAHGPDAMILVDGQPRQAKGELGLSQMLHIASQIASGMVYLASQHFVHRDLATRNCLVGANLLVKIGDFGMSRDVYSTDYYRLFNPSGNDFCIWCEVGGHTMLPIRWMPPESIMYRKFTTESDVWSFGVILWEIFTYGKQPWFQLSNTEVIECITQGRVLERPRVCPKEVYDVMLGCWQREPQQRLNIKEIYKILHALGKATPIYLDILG
UniProt O15530: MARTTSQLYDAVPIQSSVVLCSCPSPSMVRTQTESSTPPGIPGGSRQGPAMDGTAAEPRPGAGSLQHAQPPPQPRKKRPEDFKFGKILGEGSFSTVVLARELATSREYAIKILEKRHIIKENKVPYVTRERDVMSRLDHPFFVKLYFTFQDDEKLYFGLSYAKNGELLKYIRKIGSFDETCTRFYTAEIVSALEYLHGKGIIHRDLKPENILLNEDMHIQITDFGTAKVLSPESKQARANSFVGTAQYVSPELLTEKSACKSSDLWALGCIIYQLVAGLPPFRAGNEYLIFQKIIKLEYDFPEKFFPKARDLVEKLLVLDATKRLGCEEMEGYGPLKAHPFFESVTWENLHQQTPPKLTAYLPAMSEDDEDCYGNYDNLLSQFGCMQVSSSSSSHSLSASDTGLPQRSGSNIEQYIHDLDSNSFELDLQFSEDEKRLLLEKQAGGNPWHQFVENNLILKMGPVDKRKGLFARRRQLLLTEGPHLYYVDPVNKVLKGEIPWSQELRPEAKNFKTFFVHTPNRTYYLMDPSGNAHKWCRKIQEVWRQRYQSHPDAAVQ
UniProt P42356, whole entry, looked up: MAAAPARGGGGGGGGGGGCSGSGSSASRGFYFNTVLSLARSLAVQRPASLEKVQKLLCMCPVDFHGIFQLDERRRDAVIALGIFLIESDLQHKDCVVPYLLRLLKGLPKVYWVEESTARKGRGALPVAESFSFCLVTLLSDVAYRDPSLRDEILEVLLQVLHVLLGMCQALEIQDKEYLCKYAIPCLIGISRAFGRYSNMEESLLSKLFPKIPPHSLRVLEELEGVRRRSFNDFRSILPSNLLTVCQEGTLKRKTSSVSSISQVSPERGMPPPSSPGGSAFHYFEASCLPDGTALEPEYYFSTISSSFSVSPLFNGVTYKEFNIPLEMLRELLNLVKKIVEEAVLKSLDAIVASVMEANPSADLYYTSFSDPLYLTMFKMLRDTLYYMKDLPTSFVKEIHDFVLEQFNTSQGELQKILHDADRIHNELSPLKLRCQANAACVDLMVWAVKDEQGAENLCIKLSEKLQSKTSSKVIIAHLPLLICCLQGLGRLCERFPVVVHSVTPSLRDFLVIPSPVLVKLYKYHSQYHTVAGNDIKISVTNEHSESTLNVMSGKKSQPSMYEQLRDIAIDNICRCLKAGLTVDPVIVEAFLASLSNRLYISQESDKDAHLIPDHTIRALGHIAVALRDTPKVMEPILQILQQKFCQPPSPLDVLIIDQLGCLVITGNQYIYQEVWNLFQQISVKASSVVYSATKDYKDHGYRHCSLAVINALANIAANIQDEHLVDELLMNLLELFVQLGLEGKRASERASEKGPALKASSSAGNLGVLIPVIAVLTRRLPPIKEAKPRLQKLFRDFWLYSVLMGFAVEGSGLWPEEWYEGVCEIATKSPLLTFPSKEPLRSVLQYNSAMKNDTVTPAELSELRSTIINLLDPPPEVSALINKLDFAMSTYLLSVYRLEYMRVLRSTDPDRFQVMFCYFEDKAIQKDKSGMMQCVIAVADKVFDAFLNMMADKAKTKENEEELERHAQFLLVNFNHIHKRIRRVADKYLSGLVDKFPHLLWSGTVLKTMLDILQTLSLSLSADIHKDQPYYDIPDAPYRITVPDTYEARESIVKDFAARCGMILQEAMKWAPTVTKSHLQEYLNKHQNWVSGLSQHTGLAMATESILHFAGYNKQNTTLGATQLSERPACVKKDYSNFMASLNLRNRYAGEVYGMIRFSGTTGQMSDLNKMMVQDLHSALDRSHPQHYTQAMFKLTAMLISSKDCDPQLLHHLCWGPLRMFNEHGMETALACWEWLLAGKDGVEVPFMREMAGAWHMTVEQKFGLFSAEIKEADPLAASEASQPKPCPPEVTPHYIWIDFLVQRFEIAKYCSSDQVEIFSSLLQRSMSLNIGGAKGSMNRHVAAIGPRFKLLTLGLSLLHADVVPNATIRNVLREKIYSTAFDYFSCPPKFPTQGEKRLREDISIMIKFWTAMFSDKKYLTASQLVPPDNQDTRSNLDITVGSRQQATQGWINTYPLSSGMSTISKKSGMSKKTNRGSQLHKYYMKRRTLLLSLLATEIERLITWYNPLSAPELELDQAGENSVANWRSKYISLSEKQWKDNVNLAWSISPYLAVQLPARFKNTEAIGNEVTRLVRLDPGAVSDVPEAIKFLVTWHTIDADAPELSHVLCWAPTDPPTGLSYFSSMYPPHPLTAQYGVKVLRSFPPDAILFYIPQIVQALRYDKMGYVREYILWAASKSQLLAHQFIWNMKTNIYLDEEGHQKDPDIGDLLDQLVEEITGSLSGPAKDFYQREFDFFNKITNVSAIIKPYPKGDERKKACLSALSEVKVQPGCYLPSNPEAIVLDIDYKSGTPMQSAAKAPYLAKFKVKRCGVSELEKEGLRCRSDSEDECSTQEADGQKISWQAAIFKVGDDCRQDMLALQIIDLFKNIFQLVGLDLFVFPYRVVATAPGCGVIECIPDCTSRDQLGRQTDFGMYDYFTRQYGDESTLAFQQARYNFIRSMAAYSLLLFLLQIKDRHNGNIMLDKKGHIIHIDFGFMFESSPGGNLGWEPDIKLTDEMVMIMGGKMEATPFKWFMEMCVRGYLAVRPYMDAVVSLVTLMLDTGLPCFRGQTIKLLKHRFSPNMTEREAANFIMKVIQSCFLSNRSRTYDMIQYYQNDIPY
UniProt P53350, whole entry: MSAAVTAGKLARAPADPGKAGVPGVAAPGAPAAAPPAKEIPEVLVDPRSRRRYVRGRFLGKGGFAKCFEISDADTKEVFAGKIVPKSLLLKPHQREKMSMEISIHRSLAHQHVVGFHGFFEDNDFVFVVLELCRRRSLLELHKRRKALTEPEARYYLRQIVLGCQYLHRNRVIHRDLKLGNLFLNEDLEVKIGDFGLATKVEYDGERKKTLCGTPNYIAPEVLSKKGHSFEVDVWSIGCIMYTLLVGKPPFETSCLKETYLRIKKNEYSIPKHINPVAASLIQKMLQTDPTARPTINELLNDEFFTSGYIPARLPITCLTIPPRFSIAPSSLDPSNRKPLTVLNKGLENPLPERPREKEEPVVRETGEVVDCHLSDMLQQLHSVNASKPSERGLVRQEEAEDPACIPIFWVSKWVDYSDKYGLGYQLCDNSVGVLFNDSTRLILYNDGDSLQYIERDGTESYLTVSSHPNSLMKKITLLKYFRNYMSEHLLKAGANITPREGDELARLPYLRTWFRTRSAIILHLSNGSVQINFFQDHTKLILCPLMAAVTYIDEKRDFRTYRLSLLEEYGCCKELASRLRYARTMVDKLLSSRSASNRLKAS
UniProt Q05397, whole entry, looked up: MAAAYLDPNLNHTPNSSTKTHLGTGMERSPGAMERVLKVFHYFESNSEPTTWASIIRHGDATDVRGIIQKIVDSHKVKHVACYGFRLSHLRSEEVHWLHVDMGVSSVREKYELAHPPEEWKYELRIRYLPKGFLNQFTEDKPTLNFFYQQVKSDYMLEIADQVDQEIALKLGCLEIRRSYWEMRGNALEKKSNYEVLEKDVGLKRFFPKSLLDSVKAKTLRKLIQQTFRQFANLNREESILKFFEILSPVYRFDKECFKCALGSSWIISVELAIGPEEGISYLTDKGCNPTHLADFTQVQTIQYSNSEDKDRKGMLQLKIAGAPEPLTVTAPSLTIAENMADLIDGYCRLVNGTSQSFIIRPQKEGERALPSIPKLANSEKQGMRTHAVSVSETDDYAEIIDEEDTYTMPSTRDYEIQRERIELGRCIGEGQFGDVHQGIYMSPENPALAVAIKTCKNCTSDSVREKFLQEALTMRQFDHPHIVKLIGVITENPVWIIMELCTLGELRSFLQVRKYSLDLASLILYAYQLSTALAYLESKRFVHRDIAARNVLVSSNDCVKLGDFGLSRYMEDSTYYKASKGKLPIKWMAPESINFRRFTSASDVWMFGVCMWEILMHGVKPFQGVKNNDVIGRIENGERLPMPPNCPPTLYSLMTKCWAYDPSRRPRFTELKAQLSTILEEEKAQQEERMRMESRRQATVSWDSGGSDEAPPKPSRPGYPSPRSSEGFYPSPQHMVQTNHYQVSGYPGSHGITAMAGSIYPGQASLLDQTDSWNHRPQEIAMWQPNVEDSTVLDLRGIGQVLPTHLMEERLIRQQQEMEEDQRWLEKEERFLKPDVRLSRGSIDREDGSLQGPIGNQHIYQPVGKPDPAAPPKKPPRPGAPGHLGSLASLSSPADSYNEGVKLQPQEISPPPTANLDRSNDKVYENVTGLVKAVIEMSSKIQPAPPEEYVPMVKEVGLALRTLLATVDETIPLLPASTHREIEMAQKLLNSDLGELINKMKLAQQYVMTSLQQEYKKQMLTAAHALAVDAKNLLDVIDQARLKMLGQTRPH
UniProt Q13546: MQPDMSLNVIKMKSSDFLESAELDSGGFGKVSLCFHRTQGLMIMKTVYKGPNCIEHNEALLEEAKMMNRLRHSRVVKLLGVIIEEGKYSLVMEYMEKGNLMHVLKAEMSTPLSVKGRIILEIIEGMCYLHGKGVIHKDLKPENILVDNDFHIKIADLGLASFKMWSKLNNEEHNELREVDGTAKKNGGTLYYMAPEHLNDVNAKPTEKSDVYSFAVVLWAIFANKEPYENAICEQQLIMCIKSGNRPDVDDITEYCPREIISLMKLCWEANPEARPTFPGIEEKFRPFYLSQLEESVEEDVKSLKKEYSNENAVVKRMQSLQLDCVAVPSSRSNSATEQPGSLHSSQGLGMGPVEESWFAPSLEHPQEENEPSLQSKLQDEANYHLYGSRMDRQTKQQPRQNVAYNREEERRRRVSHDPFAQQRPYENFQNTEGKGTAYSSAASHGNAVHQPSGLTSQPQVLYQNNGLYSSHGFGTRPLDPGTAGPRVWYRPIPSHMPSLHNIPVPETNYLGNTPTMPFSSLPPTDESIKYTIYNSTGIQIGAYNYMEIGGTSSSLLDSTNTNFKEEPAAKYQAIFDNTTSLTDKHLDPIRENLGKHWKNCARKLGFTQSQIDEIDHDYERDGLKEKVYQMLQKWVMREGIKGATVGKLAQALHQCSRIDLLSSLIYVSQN

Key:
Experiment in all cases: number of time points (of 5) at which kinase-Nluc abundance scored as decreased, DMSO-normalised (count); higher = more persistent destabilization
Settings in all cases: K562; 2-18 h
[1] = target: NTRK3 (UniProt Q16288)
[2] = target: PAK4 (UniProt O96013)
[3] = target: PBK (UniProt Q96KB5)
[4] = target: PDGFRB (UniProt P09619)
[5] = target: PDK1 (UniProt Q15118)
[6] = target: PDPK1 (UniProt O15530)
[7] = target: PIK4CA (UniProt P42356)
[8] = target: PIK4CB (UniProt Q9UBF8)
[9] = target: PLK1 (UniProt P53350)
[10] = target: PRKAA1 (UniProt Q13131)
[11] = target: PRKCA (UniProt P17252)
[12] = target: PTK2 (UniProt Q05397)
[13] = target: PTK2B (UniProt Q14289)
[14] = target: RAF1 (UniProt P04049)
[15] = target: RAF1_S257L (clone: RAF1_mut) (UniProt P04049)
[16] = target: RET (UniProt P07949)
[17] = target: RET_M918T (clone: RET_mut) (UniProt P07949)
[18] = target: RIOK1 (UniProt Q9BRS2)
[19] = target: RIPK1 (UniProt Q13546)
[20] = target: RIPK2 (UniProt O43353)

Row | SMILES | number of time points [1] | number of time points [2] | number of time points [3] | number of time points [4] | number of time points [5] | number of time points [6] | number of time points [7] | number of time points [8] | number of time points [9] | number of time points [10] | number of time points [11] | number of time points [12] | number of time points [13] | number of time points [14] | number of time points [15] | number of time points [16] | number of time points [17] | number of time points [18] | number of time points [19] | number of time points [20]
1 | CCOc1cc(C(=O)N2CCC(N3CCN(C)CC3)CC2)ccc1Nc1ncc2c(n1)N(S(C)(=O)=O)c1ccccc1C(=O)N2C (10 µM) | 0 | 0 | 0 | 0 | 0 | 0 | 0 | 0 | 0 | 0 | 0 | 0 | 0 | 0 | 0 | 0 | 0 | 0 | 0 | 0
2 | C=CCN(/C=C1/C(=O)O[C@H](COC)[C@@]2(C)C1=C(O)C(=O)C1=C2[C@H](OC(C)=O)C[C@]2(C)C(=O)CC[C@@H]12)CC=C [Sonolisib] (2.5 µM) | 0 | 0 | 0 | 0 | 0 | 0 | 0 | 0 | 0 | 0 | 0 | 2 | 0 | 0 | 0 | 0 | 0 | 0 | 0 | 0
3 | CNS(=O)(=O)Nc1nccc(Cc2c(C)c3ccc(Oc4ncccn4)cc3oc2=O)c1F (10 µM) | 0 | 0 | 0 | 1 | 0 | 1 | 0 | 0 | 0 | 1 | 0 | 1 | 0 | 1 | 0 | 1 | 0 | 1 | 1 | 1
4 | CCOC(=O)C1=C[C@]2(CC)CCCN3CCc4c(n1c1ccccc41)[C@@H]32 [Vinpocetine] (10 µM) | 0 | 0 | 0 | 0 | 0 | 0 | 0 | 0 | 0 | 0 | 0 | 0 | 0 | 0 | 0 | 0 | 0 | 0 | 0 | 0
5 | COC[C@H]1Cn2cc(-c3nc(Nc4ccnn4C)ncc3C)nc2C(=O)N1Cc1ccc(F)c(F)c1 (10 µM) | 0 | 0 | 0 | 0 | 0 | 0 | 0 | 0 | 0 | 0 | 0 | 0 | 0 | 0 | 0 | 0 | 0 | 0 | 0 | 0
6 | COC(=O)c1cc2c(OC(C)C)cc(OC(C)C)cc2[nH]1 (2.5 µM) | 0 | 0 | 0 | 0 | 0 | 0 | 0 | 0 | 0 | 0 | 0 | 0 | 0 | 0 | 0 | 0 | 0 | 0 | 0 | 0
7 | CC1=C(C(=O)Nc2ccc3[nH]ncc3c2)C(c2ccc(F)c(C(=O)NCc3ccccn3)c2)NC(=O)N1 (stereo not given) (10 µM) | 0 | 0 | 0 | 0 | 0 | 0 | 0 | 0 | 0 | 0 | 0 | 0 | 0 | 0 | 0 | 0 | 0 | 0 | 0 | 0
8 | CN1CCN(c2ccc(NC(=O)c3ccc(C#N)o3)c(N3CCCCC3)c2)CC1 (10 µM) | 0 | 0 | 0 | 0 | 0 | 0 | 0 | 0 | 0 | 0 | 0 | 1 | 0 | 0 | 0 | 0 | 0 | 0 | 0 | 0
9 | CCn1c(-c2nonc2N)nc2c(C#CCO)ncc(OCCCN)c21 [AKT Kinase Inhibitor] (10 µM) | 0 | 0 | 0 | 0 | 0 | 0 | 0 | 0 | 0 | 0 | 0 | 0 | 0 | 0 | 0 | 0 | 0 | 0 | 0 | 0
10 | CCCC[C@H](CO)Nc1nc(NC)ncc1OC [Interferon receptor inducer-1] (10 µM) | 0 | 0 | 0 | 0 | 0 | 0 | 0 | 0 | 0 | 0 | 0 | 0 | 0 | 0 | 0 | 0 | 0 | 0 | 0 | 0
11 | CN(C)CCCNc1ccn2ncc(-c3ccc4c(c3)OCO4)c2n1 (10 µM) | 0 | 0 | 0 | 0 | 0 | 0 | 0 | 0 | 0 | 0 | 0 | 0 | 0 | 0 | 0 | 0 | 0 | 0 | 0 | 0
12 | O=C(Nc1nccs1)C(c1cc(F)ccc1O)N1Cc2ccccc2C1=O (stereo not given) (10 µM) | 0 | 0 | 0 | 0 | 0 | 0 | 0 | 0 | 0 | 0 | 0 | 0 | 0 | 0 | 0 | 0 | 0 | 0 | 0 | 0
13 | C[C@H]1CNC(=O)c2cnn3ccc(nc23)N[C@H](C)c2cc(F)ccc2O1 [Repotrectinib] (2.5 µM) | 1 | 1 | 0 | 0 | 0 | 4 | 2 | 1 | 2 | 1 | 0 | 1 | 0 | 1 | 3 | 0 | 1 | 2 | 2 | 1
14 | CN(C/C=C/C(=O)Nc1ccc(C(=O)Nc2cccc(Nc3ncc(Cl)c(-c4c[nH]c5ccccc45)n3)c2)cc1)CCCNC(=O)NCCOCCOCCOCCNC(=O)CCCC[C@@H]1SC[C@@H]2NC(=O)N[C@@H]21 (2.5 µM) | 0 | 0 | 0 | 2 | 2 | 0 | 0 | 0 | 0 | 0 | 0 | 3 | 1 | 1 | 0 | 2 | 0 | 1 | 3 | 3
15 | CCn1c2ccccc2c2cc(Nc3ccnc(NCCCN4CCOCC4)n3)ccc21 (2.5 µM) | 0 | 0 | 0 | 0 | 0 | 0 | 0 | 0 | 0 | 0 | 0 | 0 | 0 | 0 | 0 | 0 | 0 | 0 | 0 | 0
16 | CC(C)[C@H](CO)Nc1nc(Nc2ccc(C(=O)O)c(Cl)c2)c2ncn(C(C)C)c2n1 [Purvalanol B] (10 µM) | 0 | 0 | 0 | 0 | 0 | 0 | 0 | 0 | 0 | 0 | 0 | 0 | 0 | 0 | 0 | 0 | 0 | 0 | 0 | 0

Row | SMILES | number of time points [1] | number of time points [2] | number of time points [3] | number of time points [4] | number of time points [5] | number of time points [6] | number of time points [7] | number of time points [8] | number of time points [9] | number of time points [10] | number of time points [11] | number of time points [12] | number of time points [13] | number of time points [14] | number of time points [15] | number of time points [16] | number of time points [17] | number of time points [18] | number of time points [19] | number of time points [20]
17 | COc1cc2nccc(Oc3ccc(NC(=O)Nc4ccc(F)cc4F)c(F)c3)c2cc1OC (10 µM) | 2 | 0 | 0 | 0 | 0 | 0 | 0 | 0 | 0 | 0 | 0 | 5 | 0 | 0 | 0 | 0 | 0 | 0 | 0 | 0
18 | O=C(Nc1nccs1)C(c1cc(F)ccc1O)N1Cc2ccc(-c3ccc(N4CCNCC4)cc3)cc2C1=O (racemic) (10 µM) | 0 | 0 | 0 | 0 | 0 | 0 | 0 | 0 | 0 | 0 | 0 | 0 | 0 | 0 | 2 | 0 | 0 | 0 | 0 | 0
19 | NC(=O)c1ccc2nc(-c3ccc(C4(N)CCC4)cc3)c(-c3ccccc3)n2n1 (10 µM) | 0 | 0 | 0 | 0 | 0 | 0 | 0 | 0 | 0 | 0 | 0 | 0 | 0 | 0 | 0 | 0 | 0 | 0 | 0 | 0
20 | CNC(=O)c1nnc(NC(=O)C2CC2)cc1Nc1cccc(-c2ncn(C)n2)c1OC [Deucravacitinib] (10 µM) | 0 | 0 | 0 | 0 | 0 | 0 | 0 | 0 | 0 | 0 | 0 | 0 | 0 | 0 | 0 | 0 | 0 | 0 | 0 | 0
21 | Nc1nc2c(ncn2COCCO)c(=O)[nH]1 [Acyclovir] (10 µM) | 0 | 0 | 0 | 0 | 0 | 0 | 0 | 0 | 0 | 0 | 0 | 0 | 0 | 0 | 0 | 0 | 0 | 0 | 0 | 0
22 | Cc1cc(/C=C2\CC/C(=C\c3cc(C)c(O)c(C)c3)C2=O)cc(C)c1O [Pentagamavunon-1] (2.5 µM) | 0 | 0 | 0 | 0 | 0 | 0 | 2 | 0 | 0 | 0 | 0 | 0 | 0 | 0 | 0 | 0 | 0 | 0 | 0 | 0
23 | N#C/C(=C\c1ccc[nH]1)c1ccc(Cl)c(Cl)c1 (2.5 µM) | 0 | 0 | 0 | 0 | 0 | 0 | 0 | 0 | 0 | 0 | 0 | 0 | 0 | 0 | 0 | 0 | 0 | 0 | 0 | 0
24 | CC[C@H](C)[C@@H]1NC(=O)[C@@H]2CCCN2C(=O)[C@@H]2CCCN2C(=O)[C@@H]2CCCN2C(=O)[C@H](CC(C)C)NC(=O)CNC(=O)CNC(=O)[C@H](Cc2ccccc2)NC1=O [Heterophyllin B] (10 µM) | 0 | 0 | 0 | 0 | 0 | 0 | 0 | 0 | 0 | 0 | 0 | 0 | 0 | 0 | 0 | 0 | 0 | 0 | 0 | 0
25 | Cc1ccc(CNC(=O)N2CCC[C@]3(CCN(Cc4ccc(Cl)c(Cl)c4)C3)C2)cc1 (10 µM) | 0 | 0 | 0 | 0 | 0 | 0 | 0 | 0 | 0 | 0 | 0 | 0 | 0 | 0 | 0 | 0 | 0 | 0 | 0 | 0
26 | CCc1nc(C(N)=O)c(Nc2ccc(N3CCC(N4CCN(C)CC4)CC3)c(OC)c2)nc1NC1CCC(OC)CC1 (stereo not given) [EML4-ALK kinase inhibitor 1] (2.5 µM) | 0 | 0 | 0 | 0 | 0 | 0 | 0 | 0 | 0 | 0 | 0 | 0 | 0 | 0 | 0 | 0 | 0 | 0 | 0 | 0
27 | Cc1ccc(-n2c(-c3ccc(O)cc3O)n[nH]c2=O)cc1 (10 µM) | 4 | 0 | 0 | 3 | 0 | 4 | 4 | 1 | 0 | 0 | 0 | 2 | 0 | 3 | 5 | 0 | 0 | 0 | 3 | 3
28 | N#Cc1cn([C@@H]2O[C@H](CO)[C@@H](O)[C@H]2O)c2nc[nH]c(=O)c12 [Jaspamycin] (10 µM) | 0 | 0 | 0 | 0 | 0 | 0 | 0 | 0 | 0 | 0 | 0 | 0 | 0 | 0 | 0 | 0 | 0 | 0 | 0 | 0
29 | COc1cc(Nc2nc3ccccc3nc2NS(=O)(=O)c2ccc(NC(=O)c3ccc(C)c(OC)c3)cc2)cc(OC)c1 (10 µM) | 0 | 0 | 0 | 0 | 0 | 0 | 0 | 0 | 0 | 0 | 0 | 0 | 0 | 0 | 0 | 0 | 0 | 0 | 0 | 0
30 | C[C@@H]1CN(Cc2cn[nH]c2-c2ccc(C#N)cc2)CCN1c1ccc(C(F)(F)F)cn1 (2.5 µM) | 0 | 0 | 0 | 0 | 0 | 0 | 0 | 0 | 0 | 0 | 0 | 0 | 0 | 0 | 0 | 0 | 0 | 0 | 0 | 0
31 | COc1cccc(Nc2ncnn3ccc(CN4CC[C@@H](N)[C@H](O)C4)c23)c1 (2.5 µM) | 0 | 0 | 0 | 0 | 0 | 2 | 0 | 1 | 0 | 0 | 0 | 1 | 0 | 3 | 3 | 0 | 0 | 0 | 2 | 2
32 | COc1cc(OC)c(/C=C/S(=O)(=O)Cc2ccc(OC)c(NCC(=O)O)c2)c(OC)c1 [Rigosertib (sodium)] (10 µM) | 3 | 0 | 0 | 2 | 0 | 4 | 0 | 0 | 0 | 1 | 0 | 0 | 0 | 2 | 1 | 0 | 0 | 0 | 0 | 1

Three structures already listed, ordered by number of heavy atoms, ascending.
Row | SMILES | number of time points [1] | number of time points [2] | number of time points [3] | number of time points [4] | number of time points [5] | number of time points [6] | number of time points [7] | number of time points [8] | number of time points [9] | number of time points [10] | number of time points [11] | number of time points [12] | number of time points [13] | number of time points [14] | number of time points [15] | number of time points [16] | number of time points [17] | number of time points [18] | number of time points [19] | number of time points [20]
6 | COC(=O)c1cc2c(OC(C)C)cc(OC(C)C)cc2[nH]1 (2.5 µM) | 0 | 0 | 0 | 0 | 0 | 0 | 0 | 0 | 0 | 0 | 0 | 0 | 0 | 0 | 0 | 0 | 0 | 0 | 0 | 0
11 | CN(C)CCCNc1ccn2ncc(-c3ccc4c(c3)OCO4)c2n1 (10 µM) | 0 | 0 | 0 | 0 | 0 | 0 | 0 | 0 | 0 | 0 | 0 | 0 | 0 | 0 | 0 | 0 | 0 | 0 | 0 | 0
9 | CCn1c(-c2nonc2N)nc2c(C#CCO)ncc(OCCCN)c21 [AKT Kinase Inhibitor] (10 µM) | 0 | 0 | 0 | 0 | 0 | 0 | 0 | 0 | 0 | 0 | 0 | 0 | 0 | 0 | 0 | 0 | 0 | 0 | 0 | 0
